Patent US20260109774A1 (JUNO THERAPEUTICS, published 2026)
No constants are given. Whether binding was seen depends on the method and setting. Some results given as binding are weak or reduced against the parent protein; the word gives no strength. Values belong to the binder of their own block, whether it stands above or below them.

The chains behind the UniProt entries cited, without tags or fusion partners. Where a name states a change or a piece, a line headed by the entry shows the natural chain unless it says otherwise.
UniProt Q02223: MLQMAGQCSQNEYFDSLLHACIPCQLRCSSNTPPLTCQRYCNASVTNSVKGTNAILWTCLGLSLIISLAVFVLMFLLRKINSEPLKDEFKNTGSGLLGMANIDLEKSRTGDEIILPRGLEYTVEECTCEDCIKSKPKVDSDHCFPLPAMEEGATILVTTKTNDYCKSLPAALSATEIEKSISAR

Tests used:
[1] = target: BCMA-Fc (soluble human BCMA fused at its C-terminus to an Fc region of IgG) (human) (UniProt Q02223); assay: flow cytometry of transduced T cells stained with recombinant BCMA-Fc
[2] = target: BCMA-Fc (soluble human BCMA fused at its C-terminus to an Fc region of IgG) (human) (UniProt Q02223); assay: flow cytometry of transduced primary T cells (CD4 and CD8 gates, Non-SSE and O/SSE constructs) stained with recombinant BCMA-Fc (rBCMA) and for the surrogate marker

- binding [1]: binds
- binding [2]: binds
B1: BCMA-55-LS CAR (other)
chain: QSALTQPASVSASPGQSIAISCTGTSSDVGWYQQHPGKAPKLMIYEDSKRPSGVSNRFSGSKSGNTASLTISGLQAEDEADYYCSSNTRSSTLVFGGGTKLTVLGSRGGGGSGGGGSGGGGSLEMAEVQLVQSGAEMKKPGASLKLSCKASGYTFIDYYVYWMRQAPGQGLESMGWINPNSGGTNYAQKFQGRVTMTRDTSISTAYMELSRLRSDDTAMYYCARSQRDGYMDYWGQGTLVTVSSESKYGPPCPPCPAPPVAGPSVFLFPPKPKDTLMISRTPEVTCVVVDVSQEDPEVQFNWYVDGVEVHNAKTKPREEQFQSTYRVVSVLTVLHQDWLNGKEYKCKVSNKGLPSSIEKTISKAKGQPREPQVYTLPPSQEEMTKNQVSLTCLVKGFYPSDIAVEWESNGQPENNYKTTPPVLDSDGSFFLYSRLTVDKSRWQEGNVFSCSVMHEALHNHYTQKSLSLSLGKMFWVLVVVGGVLACYSLLVTVAFIIFWVKRGRKKLLYIFKQPFMRPVQTTQEEDGCSCRFPEEEEGGCELRVKFSRSADAPAYQQGQNQLYNELNLGRREEYDVLDKRRGRDPEMGGKPRRKNPQEGLYNELQKDKMAEAYSEIGMKGERRRGKGHDGLYQGLSTATKDTYDALHMQALPPR
notes: Chimeric antigen receptor on T cells or Jurkat cells; also called BCMA-55-LS-O/SSE CAR; BCMA-55-LS CAR O/SSE

- binding [2]: binds
B2: BCMA-25-LS CAR (other)
chain: EVQLVQSGGGLVQPGRSLRLSCTASGFTFGDYAMSWFRQAPGKGLEWVGFIRSKAYGGTTEYAASVKGRFTISRDDSKSIAYLQMNSLKTEDTAVYYCAAWSAPTDYWGQGTLVTVSSGGGGSGGGGSGGGGSDIQMTQSPAFLSASVGDRVTVTCRASQGISNYLAWYQQKPGNAPRLLIYSASTLQSGVPSRFRGTGYGTEFSLTIDSLQPEDFATYYCQQSYTSRQTFGPGTRLDIKESKYGPPCPPCPAPPVAGPSVFLFPPKPKDTLMISRTPEVTCVVVDVSQEDPEVQFNWYVDGVEVHNAKTKPREEQFQSTYRVVSVLTVLHQDWLNGKEYKCKVSNKGLPSSIEKTISKAKGQPREPQVYTLPPSQEEMTKNQVSLTCLVKGFYPSDIAVEWESNGQPENNYKTTPPVLDSDGSFFLYSRLTVDKSRWQEGNVFSCSVMHEALHNHYTQKSLSLSLGKMFWVLVVVGGVLACYSLLVTVAFIIFWVKRGRKKLLYIFKQPFMRPVQTTQEEDGCSCRFPEEEEGGCELRVKFSRSADAPAYQQGQNQLYNELNLGRREEYDVLDKRRGRDPEMGGKPRRKNPQEGLYNELQKDKMAEAYSEIGMKGERRRGKGHDGLYQGLSTATKDTYDALHMQALPPR
notes: Chimeric antigen receptor; signal peptide left out; also called BCMA-25-LS-O/SSE CAR; BCMA-25-L CAR
